# The supplement of paper PMC8728848
# The other results are listed elsewhere or left out.
# B1: Loc1 (Escherichia coli) (protein)
# chain: APCALTNVGEQRGTYILKPLSMKGNLTAEKIENTGNIIECTDLQETTNAIKVHFLTQNALKFKVGSRHYIINFPFEYDGKKIELPGKSSYNLEEMLSAINFTIPYSIASVSDSSNTADIFPGTPFPLLFEIEVSSCTGNNTNCNSVRFNYNLNTILQVNLMTHHHHHH
# Key:
# Assay in all cases: glycan array binding signal (z-score within array); higher = stronger binding
# Conditions in all cases: glycan notation: IUPAC condensed, linker removed
# Glc(b1-6)Glc = molecular target: Glc(b1-6)Glc
# Method in brief: (§1)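 The binding signal is a Z-score computed within each array. Data were drawn from 3228 arrays in the Consortium for Functional Glycomics database, restricted to those with a known protein sequence. Scores were averaged over arrays of the same protein sequence at different concentrations or buffers, and over linkers, and negative values can be taken as non-binding.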
# GlcA(b1-3)Gal = molecular target: GlcA(b1-3)Gal
# Method in brief: as §1
# GlcA(b1-3)GlcNAc = molecular target: GlcA(b1-3)GlcNAc
# Method in brief: as §1
# GlcA(b1-6)Gal = molecular target: GlcA(b1-6)Gal
# Method in brief: as §1
# [1] = molecular target: GlcA3S(b1-3)Gal(b1-4)GlcNAc(b1-2)Man
# Method in brief: as §1
# [2] = molecular target: GlcA3S(b1-3)Gal(b1-4)GlcNAc(b1-3)Gal(b1-4)Glc
# Method in brief: as §1
# [3] = molecular target: GlcNAc(a1-3)Gal(b1-4)GlcNAc
# Method in brief: as §1
# [4] = molecular target: GlcNAc(a1-4)Gal(b1-3)GlcNAc
# Method in brief: as §1
# [5] = molecular target: GlcNAc(a1-4)Gal(b1-4)GalNAc
# Method in brief: as §1
# [6] = molecular target: GlcNAc(a1-4)Gal(b1-4)GlcNAc
# Method in brief: as §1
# [7] = molecular target: GlcNAc(a1-4)Gal(b1-4)GlcNAc(b1-3)Gal(b1-4)Glc
# Method in brief: as §1
# [8] = molecular target: GlcNAc(a1-4)Gal(b1-4)GlcNAc(b1-3)Gal(b1-4)GlcNAc
# Method in brief: as §1
# [9] = molecular target: GlcNAc(a1-4)Gal(b1-4)GlcNAc(b1-3)Gal(b1-4)GlcNAc(b1-3)Gal(b1-4)GlcNAc
# Method in brief: as §1
# [10] = molecular target: GlcNAc(a1-4)Gal(b1-4)GlcNAc(b1-3)Gal(b1-4)[Fuc(a1-3)]GlcNAc(b1-3)Gal(b1-4)[Fuc(a1-3)]GlcNAc
# Method in brief: as §1
# [11] = molecular target: GlcNAc(a1-6)Gal(b1-4)GlcNAc
# Method in brief: as §1
# [12] = molecular target: GlcNAc(b1-2)Gal(b1-3)GalNAc
# Method in brief: as §1
# [13] = molecular target: GlcNAc(b1-2)Man(a1-3)[GlcNAc(b1-2)Man(a1-6)]Man(b1-4)GlcNAc(b1-4)GlcNAc
# Method in brief: as §1
# [14] = molecular target: GlcNAc(b1-2)Man(a1-3)[GlcNAc(b1-2)Man(a1-6)]Man(b1-4)GlcNAc(b1-4)[Fuc(a1-6)]GlcNAc
# Method in brief: as §1
# [15] = molecular target: GlcNAc(b1-2)Man(a1-3)[GlcNAc(b1-4)][GlcNAc(b1-2)Man(a1-6)]Man(b1-4)GlcNAc(b1-4)GlcNAc
# Method in brief: as §1
# [16] = molecular target: GlcNAc(b1-2)Man(a1-3)[GlcNAc(b1-4)][GlcNAc(b1-2)Man(a1-6)]Man(b1-4)GlcNAc(b1-4)[Fuc(a1-6)]GlcNAc
# Method in brief: as §1
# [17] = molecular target: GlcNAc(b1-2)[GlcNAc(b1-4)]Man(a1-3)[GlcNAc(b1-2)Man(a1-6)]Man(b1-4)GlcNAc(b1-4)GlcNAc
# Method in brief: as §1
# [18] = molecular target: GlcNAc(b1-2)[GlcNAc(b1-4)]Man(a1-3)[GlcNAc(b1-4)][GlcNAc(b1-2)Man(a1-6)]Man(b1-4)GlcNAc(b1-4)GlcNAc
# Method in brief: as §1
# [19] = molecular target: GlcNAc(b1-2)[GlcNAc(b1-4)]Man(a1-3)[GlcNAc(b1-4)][GlcNAc(b1-2)[GlcNAc(b1-6)]Man(a1-6)]Man(b1-4)GlcNAc(b1-4)GlcNAc
# Method in brief: as §1
# [20] = molecular target: GlcNAc(b1-2)[GlcNAc(b1-4)]Man(a1-3)[GlcNAc(b1-4)][GlcNAc(b1-2)[GlcNAc(b1-6)]Man(a1-6)]Man(b1-4)GlcNAc(b1-4)[Fuc(a1-6)]GlcNAc
# Method in brief: as §1
# [21] = molecular target: GlcNAc(b1-2)[GlcNAc(b1-6)]Man(a1-6)[GlcNAc(b1-2)Man(a1-3)]Man(b1-4)GlcNAc(b1-4)GlcNAc
# Method in brief: as §1
# [22] = molecular target: GlcNAc(b1-2)[GlcNAc(b1-6)]Man(a1-6)[GlcNAc(b1-2)Man(a1-3)]Man(b1-4)GlcNAc(b1-4)[Fuc(a1-6)]GlcNAc
# Method in brief: as §1
# [23] = molecular target: GlcNAc(b1-2)[GlcNAc(b1-6)]Man(a1-6)[GlcNAc(b1-4)][GlcNAc(b1-2)Man(a1-3)]Man(b1-4)GlcNAc(b1-4)GlcNAc
# Method in brief: as §1
# GlcNAc(b1-3)Fuc = molecular target: GlcNAc(b1-3)Fuc
# Method in brief: as §1
# GlcNAc(b1-3)Gal = molecular target: GlcNAc(b1-3)Gal
# Method in brief: as §1
# [24] = molecular target: GlcNAc(b1-3)Gal(b1-3)GalNAc
# Method in brief: as §1
# GlcNAc(b1-3)Gal(b1-4)Glc = molecular target: GlcNAc(b1-3)Gal(b1-4)Glc
# Method in brief: as §1
# [25] = molecular target: GlcNAc(b1-3)Gal(b1-4)GlcNAc
# Method in brief: as §1
# [26] = molecular target: GlcNAc(b1-3)Gal(b1-4)GlcNAc(b1-2)Man(a1-3)[GlcNAc(b1-3)Gal(b1-4)GlcNAc(b1-2)Man(a1-6)]Man(b1-4)GlcNAc(b1-4)GlcNAc
# Method in brief: as §1
# [27] = molecular target: GlcNAc(b1-3)Gal(b1-4)GlcNAc(b1-2)Man(a1-3)[GlcNAc(b1-3)Gal(b1-4)GlcNAc(b1-2)Man(a1-6)]Man(b1-4)GlcNAc(b1-4)[Fuc(a1-6)]GlcNAc
# Method in brief: as §1
# [28] = molecular target: GlcNAc(b1-3)Gal(b1-4)GlcNAc(b1-2)[GlcNAc(b1-3)Gal(b1-4)GlcNAc(b1-6)]Man(a1-6)[GlcNAc(b1-3)Gal(b1-4)GlcNAc(b1-2)Man(a1-3)]Man(b1-4)GlcNAc(b1-4)GlcNAc
# Method in brief: as §1
# [29] = molecular target: GlcNAc(b1-3)Gal(b1-4)GlcNAc(b1-3)Gal(b1-4)GlcNAc
# Method in brief: as §1
# [30] = molecular target: GlcNAc(b1-3)Gal(b1-4)GlcNAc(b1-3)Gal(b1-4)GlcNAc(b1-2)Man(a1-3)[GlcNAc(b1-3)Gal(b1-4)GlcNAc(b1-3)Gal(b1-4)GlcNAc(b1-2)Man(a1-6)]Man(b1-4)GlcNAc(b1-4)GlcNAc
# Method in brief: as §1
# [31] = molecular target: GlcNAc(b1-3)Gal(b1-4)GlcNAc(b1-3)Gal(b1-4)GlcNAc(b1-2)Man(a1-3)[GlcNAc(b1-3)Gal(b1-4)GlcNAc(b1-3)Gal(b1-4)GlcNAc(b1-2)Man(a1-6)]Man(b1-4)GlcNAc(b1-4)[Fuc(a1-6)]GlcNAc
# Method in brief: as §1
# [32] = molecular target: GlcNAc(b1-3)Gal(b1-4)GlcNAc(b1-3)Gal(b1-4)GlcNAc(b1-2)[GlcNAc(b1-3)Gal(b1-4)GlcNAc(b1-3)Gal(b1-4)GlcNAc(b1-6)]Man(a1-6)[GlcNAc(b1-3)Gal(b1-4)GlcNAc(b1-3)Gal(b1-4)GlcNAc(b1-2)Man(a1-3)]Man(b1-4)GlcNAc(b1-4)[Fuc(a1-6)]GlcNAc
# Method in brief: as §1
# [33] = molecular target: GlcNAc(b1-3)Gal(b1-4)GlcNAc(b1-3)Gal(b1-4)GlcNAc(b1-3)Gal(b1-4)GlcNAc(b1-2)Man(a1-3)[GlcNAc(b1-3)Gal(b1-4)GlcNAc(b1-3)Gal(b1-4)GlcNAc(b1-3)Gal(b1-4)GlcNAc(b1-2)Man(a1-6)]Man(b1-4)GlcNAc(b1-4)GlcNAc
# Method in brief: as §1
# [34] = molecular target: GlcNAc(b1-3)Gal(b1-4)GlcNAc(b1-3)Gal(b1-4)GlcNAc(b1-3)Gal(b1-4)GlcNAc(b1-2)Man(a1-3)[GlcNAc(b1-3)Gal(b1-4)GlcNAc(b1-3)Gal(b1-4)GlcNAc(b1-3)Gal(b1-4)GlcNAc(b1-2)Man(a1-6)]Man(b1-4)GlcNAc(b1-4)[Fuc(a1-6)]GlcNAc
# Method in brief: as §1
# [35] = molecular target: GlcNAc(b1-3)Gal(b1-4)GlcNAc(b1-3)Gal(b1-4)GlcNAc(b1-3)Gal(b1-4)GlcNAc(b1-2)[GlcNAc(b1-3)Gal(b1-4)GlcNAc(b1-3)Gal(b1-4)GlcNAc(b1-3)Gal(b1-4)GlcNAc(b1-6)]Man(a1-6)[GlcNAc(b1-3)Gal(b1-4)GlcNAc(b1-3)Gal(b1-4)GlcNAc(b1-3)Gal(b1-4)GlcNAc(b1-2)Man(a1-3)]Man(b1-4)GlcNAc(b1-4)[Fuc(a1-6)]GlcNAc
# Method in brief: as §1
# [36] = molecular target: GlcNAc(b1-3)Gal(b1-4)GlcNAc(b1-3)Gal(b1-4)GlcNAc(b1-3)Gal(b1-4)GlcNAc(b1-3)Gal(b1-4)GlcNAc(b1-2)Man(a1-3)[GlcNAc(b1-3)Gal(b1-4)GlcNAc(b1-3)Gal(b1-4)GlcNAc(b1-3)Gal(b1-4)GlcNAc(b1-3)Gal(b1-4)GlcNAc(b1-2)Man(a1-6)]Man(b1-4)GlcNAc(b1-4)GlcNAc
# Method in brief: as §1
# [37] = molecular target: GlcNAc(b1-3)Gal(b1-4)GlcNAc(b1-3)Gal(b1-4)GlcNAc(b1-3)Gal(b1-4)GlcNAc(b1-3)Gal(b1-4)GlcNAc(b1-2)Man(a1-3)[GlcNAc(b1-3)Gal(b1-4)GlcNAc(b1-3)Gal(b1-4)GlcNAc(b1-3)Gal(b1-4)GlcNAc(b1-3)Gal(b1-4)GlcNAc(b1-2)Man(a1-6)]Man(b1-4)GlcNAc(b1-4)[Fuc(a1-6)]GlcNAc
# Method in brief: as §1
# [38] = molecular target: GlcNAc(b1-3)Gal(b1-4)GlcNAc(b1-3)Gal(b1-4)GlcNAc(b1-3)Gal(b1-4)GlcNAc(b1-3)Gal(b1-4)GlcNAc(b1-2)[GlcNAc(b1-3)Gal(b1-4)GlcNAc(b1-3)Gal(b1-4)GlcNAc(b1-3)Gal(b1-4)GlcNAc(b1-3)Gal(b1-4)GlcNAc(b1-6)]Man(a1-6)[GlcNAc(b1-3)Gal(b1-4)GlcNAc(b1-3)Gal(b1-4)GlcNAc(b1-3)Gal(b1-4)GlcNAc(b1-3)Gal(b1-4)GlcNAc(b1-2)Man(a1-3)]Man(b1-4)GlcNAc(b1-4)[Fuc(a1-6)]GlcNAc
# Method in brief: as §1
binder,measurement,setting,value
B1,glycan array binding signal (z-score),Glc(b1-6)Glc,1.24
same,glycan array binding signal (z-score),GlcA(b1-3)Gal,-0.452
same,glycan array binding signal (z-score),GlcA(b1-3)GlcNAc,0.374
same,glycan array binding signal (z-score),GlcA(b1-6)Gal,0.253
same,glycan array binding signal (z-score),[1],0.781
same,glycan array binding signal (z-score),[2],-0.398
same,glycan array binding signal (z-score),[3],-0.527
same,glycan array binding signal (z-score),[4],0.435
same,glycan array binding signal (z-score),[5],-0.598
same,glycan array binding signal (z-score),[6],0.112
same,glycan array binding signal (z-score),[7],0.023
same,glycan array binding signal (z-score),[8],-0.411
same,glycan array binding signal (z-score),[9],-0.415
same,glycan array binding signal (z-score),[10],0.576
same,glycan array binding signal (z-score),[11],2.41
same,glycan array binding signal (z-score),[12],-0.413
same,glycan array binding signal (z-score),[13],-0.178
same,glycan array binding signal (z-score),[14],-0.894
same,glycan array binding signal (z-score),[15],-0.851
same,glycan array binding signal (z-score),[16],-0.643
same,glycan array binding signal (z-score),[17],-0.138
same,glycan array binding signal (z-score),[18],1.11
same,glycan array binding signal (z-score),[19],0.673
same,glycan array binding signal (z-score),[20],0.179
same,glycan array binding signal (z-score),[21],3.01
same,glycan array binding signal (z-score),[22],1.35
same,glycan array binding signal (z-score),[23],-0.248
same,glycan array binding signal (z-score),GlcNAc(b1-3)Fuc,1.43
same,glycan array binding signal (z-score),GlcNAc(b1-3)Gal,-0.408
same,glycan array binding signal (z-score),[24],-0.021
same,glycan array binding signal (z-score),GlcNAc(b1-3)Gal(b1-4)Glc,-0.705
same,glycan array binding signal (z-score),[25],0.661
same,glycan array binding signal (z-score),[26],-0.113
same,glycan array binding signal (z-score),[27],0.259
same,glycan array binding signal (z-score),[28],0.191
same,glycan array binding signal (z-score),[29],0.458
same,glycan array binding signal (z-score),[30],0.904
same,glycan array binding signal (z-score),[31],0.449
same,glycan array binding signal (z-score),[32],0.447
same,glycan array binding signal (z-score),[33],0.41
same,glycan array binding signal (z-score),[34],-0.224
same,glycan array binding signal (z-score),[35],0.851
same,glycan array binding signal (z-score),[36],1.84
same,glycan array binding signal (z-score),[37],-0.479
same,glycan array binding signal (z-score),[38],-0.076
